Among all 53,000 sequences or so, about 3,700 (7%) were called active.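 Rule for the calls: active = gene knockdowns whose robust z-score for IL-1 alpha signal is at least 2 or at most -2, so actives lie on both sides; inactive = the rest.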 The list shows a part of the results.
assay: Components of the Cytosolic LPS Sensing Pathway: Gene Identification via Genome-wide siRNA Screen; conditions: RAW264.7 macrophages, IL-1a HTRF, actives lie on both sides, screened at 100 nM (by protocol), cells primed 5 h with Pam3CSK4 first;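 note: robust z of the log signal after scaling to non-targeting control siRNA wells of the plate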
Outline: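 Supernatant IL-1a by HTRF from RAW264.7 cells primed with Pam3CSK4 (5 hours) and transfected with LipidA (24 hour) after 48h siRNA knockdown at 100 nM; cell viability checked with CellTiter-Glo.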

Sequence | z-score
GAUGUACUUAUUCAUGAUGTT against Olfr353 | inactive: 0.249
GGUGUUAUGCAAAAUUCAGTT against Slc7a6 | inactive: 0.607
GGUUAAACAGCUCCAUUUUTT against Padi2 | inactive: 0.582
GCAUAAACAGCGACAAAUGTT against Mrpl36 | inactive: -1.24
GGUAGUGAUUACGAACCAATT against Hey1 | inactive: 0.605
GGAUGUCUUUCCUACACGUTT against Mob3c | inactive: 0.402
GGUCUGGAGAUUGUAUUUUTT against Ptpn21 | inactive: 0.18
GGUGGUGACCUCCACAGAUTT against Clcnka | inactive: -1.09
GGUGAACGGAUAUCCUGUGTT against Pdzd3 | inactive: -0.227
GGAGGGUAGGUCCUUUGUATT against Pcdhb16 | inactive: -0.381
GCCGCUGAACAAUUUAUCCTT against Rnase6 | inactive: -0.184
GCUUGAAUCCGAUUUGUUATT against Gramd1c | inactive: 0.296
GGAACAACAAAAAUUCCAATT against Tor1b | inactive: 1.12
CGGCAAUGCGUUUCCUUUUTT against Lama4 | inactive: 1.58
CCAAUUCAUGGUGUUCUUUTT against H2-Aa | inactive: 1.23
GGCAGAAGCCUAAAACGGUTT against Nudt2 | inactive: 0.00394
GGGUUCCAUAUGAUUGCUCTT against St18 | inactive: 0.137
UCAUGGUCAUCUUUACCCUTT against Tmem259 | inactive: -1.03
CCACCAAAAUUUCAUGAUATT against Eps15l1 | inactive: 0.364
CCCAUGGUCACUUAUAUAUTT against Jarid2 | inactive: 0.109
CCGGUCAUCUUUCUAUUAUTT against Adtrp | inactive: 1.69
GGGCUUCUCUUUGCACUCUTT against Olfr1366 | inactive: 0.44
GGUCAUCCGAGAUUUCACCTT against Elavl3 | inactive: -0.944
CCAAACCAGUGGAGUCCAUTT against Slc7a14 | active: -2.26
GCUAACCUUGUUUUACAAGTT against D030056L22Rik | inactive: 0.652
GGAGGGUAAGACAAUGCACTT against Tmem17 | inactive: -0.62
GGGCUUAAGCUUUGAGGGUTT against Foxs1 | inactive: 0.213
GCCCUACCAAAGACACUAGTT against Lrch4 | active: -2.31
GGUUUUUGAUCUUUGUGUCTT against Nr2c1 | inactive: -1.57

Rewritten with each value named: entries from further up.
GCCCUACCAAAGACACUAGTT against Lrch4
  z-score: active: -2.31
GGUUUUUGAUCUUUGUGUCTT against Nr2c1
  z-score: inactive: -1.57

Reference: PubChem BioAssay AID1508600 (Functional Genomics Laboratory (NCATS/FGL), 2020)
